# Percent effect of library compounds

From ChEMBL document CHEMBL3988442, “University of Dundee, Small-Polar-MMV Screening Library” (2021).

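Assay of Toxoplasma gondii numbers, read through their beta-galactosidase reporter with a colour substrate. Tested at 10 µM. The record gives no direction; the compounds picked for IC50 retests had high values, so higher reads as fewer parasites. About 67,000 compounds were tested under these conditions; 0.38% (about 260) showed 50% or more at least once.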

Results are given as percent effect. The controls that fix the scale are not given in the record; negative values are as filed. This is an unselected part of the compounds tested.

Compound: COC(=O)C(NC(=O)CCc1ccco1)c1cc(F)ccc1F (stereo not drawn)
effect: -9.668

Compound: CC(C)C(C)NC(=O)Nc1ccc(CS(=O)(=O)C(C)C)cc1 (stereo not drawn)
effect: -0.8203

Compound: CC(C)C(Sc1nncn1C1CC1)C(=O)NCc1cccnc1 (stereo not drawn)
effect: 9.782

Compound: Cc1nc(C)n(CC2CCCN2Cc2nc3ccccc3c(=O)[nH]2)n1 (stereo not drawn)
effect: 0.3765

Compound: Cc1nc2ccccc2n1Cc1cc(C(=O)N2C[C@@H](C)O[C@@H](C)C2)no1
effect: 0.03082

Compound: COC(=O)N1CCN(C(=O)c2ccc(C)c(N3CCNC3=O)c2)CC1
effect: 3.475

Compound: CS(=O)(=O)N1CCOCC2(CCN(Cc3ccoc3)CC2)C1.O=C(O)C(F)(F)F
effect: 12.17

Compound: Cc1cnn(CC2CCCN2Cc2nccn2C)c1 (stereo not drawn)
effect: -6.13

Compound: CNc1nc(C2CCCN(C(=O)C3CCCCC3)C2)nc2c1CNCC2 (stereo not drawn)
effect: 20.07

Compound: Cc1noc(C)c1CN(C)C(=O)NC1CCN(C2CC2)CC1
effect: -1.128

Compound: Cc1noc(CNC(=O)c2ccccc2-n2cc(CN)cn2)n1
effect: 6.607

Compound: CC(CCN1CCCC1=O)NCc1cnc(C2CCC2)s1 (stereo not drawn)
effect: -1.906

Compound: CC[C@@H](CO)NC(=O)c1cc(COc2ccc(OC)cc2Cl)[nH]n1
effect: 7.624

Compound: COc1ccc(F)cc1NC(=O)NCC1(CN2CCOCC2)CC1
effect: 4.747

Compound: COCCCN1CCCCC12CC(=O)N(Cc1ccccn1)C2 (stereo not drawn)
effect: 17.07

Compound: Cn1ccnc1Sc1ncc(C(=O)N2CCCCC2)cc1Cl
effect: -6.558

Compound: Cc1ncc(C(=O)N2CCC(N3C[C@@H](C)O[C@@H](C)C3)CC2)c(=O)[nH]1
effect: 2.017

Compound: O=C(O)C(F)(F)F.[H][C@@]12CCCO[C@]1([H])[C@H](NC(=O)CC1CC1)CN(Cc1csc(C)n1)C2
effect: 1.634

Compound: COc1ccc(CN2CCC3(CC2)NC(=O)CC3c2cnn(C)c2)cc1.O=C(O)C(F)(F)F (stereo not drawn)
effect: 1.843

Compound: CCNC(=O)NCc1ccc(-n2ccc(C(F)(F)F)n2)cc1
effect: -19.64

Compound: Cn1c(CCN2CCN(CCc3ccccc3)CC2)nc2ccccc21
effect: -1.78

Compound: Cc1nc(NC(=O)C2(C)CN(C)CCO2)sc1C.Cl (stereo not drawn)
effect: -5.954

Compound: Cc1cc(C(F)(F)F)nn1CCCNC(=O)C1CCCO1 (stereo not drawn)
effect: -4.326

Compound: CC(CO)CN(Cc1ccccc1)Cc1c[nH]cn1 (stereo not drawn)
effect: 5.072

Compound: NCC(=O)N1CCCC1c1ccc(C(=O)NCc2ccoc2)s1 (stereo not drawn)
effect: -3.862

Compound: CC(C)n1ccnc1C1CCCN(c2ccnc3ccccc23)C1 (stereo not drawn)
effect: -4.185

Compound: Cc1sc(Oc2ccccc2Cl)nc1C(=O)O
effect: 6.967

Compound: CCC(CC)(CNC(=O)OC(C)(C)C)NC(=O)C1CCCO1 (stereo not drawn)
effect: -1.325

Compound: [H][C@@]12CS(=O)(=O)C[C@]1([H])NCCN2c1ccnc(N(C)Cc2cccnc2)n1
effect: -14.56

Compound: Cc1nn(C)c(C)c1C1CCCN1C(=O)c1nccnc1N (stereo not drawn)
effect: 6.404

Compound: CCc1n[nH]c(C2CN(C(=O)c3ccc(NC4CC4)nc3)CCO2)n1 (stereo not drawn)
effect: 5.121

Compound: CCOCc1ccccc1NC(=O)NC1CCN(C(=O)OCC)CC1
effect: 1.511

Compound: O=C(NCCN1CCOCC1)c1ccn(COc2ccc(F)cc2)n1
effect: -3.434

Compound: Cc1ccc(Sc2ccc(N3CCCC(C(=O)O)C3)nn2)cc1 (stereo not drawn)
effect: -3.511

Compound: COc1ccccc1CNc1c(O)c(=O)c1=O
effect: 25.09

Compound: COC(=O)c1cc(C(=O)N2CCCCC2C)n(-c2ccccc2)n1 (stereo not drawn)
effect: -35.15

Compound: O=C(O)C(F)(F)F.[H][C@]12C[C@@H](Cn3cncn3)N(C(C)=O)[C@@]1([H])CCN(CC1CC1)C2
effect: 4.187

Compound: Cc1ccccc1C(CNc1ncnc2c1CCNCC2)N(C)C (stereo not drawn)
effect: 19.96

Compound: O=C(N[C@H]1COC[C@@H]1N1CCCC1)c1csc(Cc2ccccc2)n1
effect: 1.358

Compound: [H][C@@]12C[C@H](NC(=O)Cc3nc4nc(C)cc(C)n4n3)CN1CCN(C)C2
effect: 4.901

Compound: Cc1nc(CN2CCCN(C(=O)c3cnccn3)CC2)cs1
effect: -25.09

Compound: CC(C)c1cc(C(=O)NC2CCN(CC(N)=O)CC2)nn1C(C)(C)C
effect: -6.278

Compound: Cc1nn(C)cc1-c1cc(C(F)F)n2nc(CCC(=O)O)nc2n1
effect: 4.432

Compound: FC(F)(F)c1cc(C2CCNCC2)nc(-c2ccsc2)n1
effect: -4.457

Compound: [H][C@]12CC[C@@]3(N=C(CC)N(C)C3=O)[C@@]1([H])CN(C(=O)Nc1ccccc1)C2
effect: 3.563

Compound: Cc1ccc(-c2cc(CN3CCc4cncnc4C3)on2)cc1
effect: -0.1836

Compound: CN1CCC(Oc2ccc(NC(=O)c3cccc(Cl)c3)cc2)CC1
effect: 4.298

Compound: CCNC(=O)CCC(=O)NCC1(O)CCC(C(C)(C)C)CC1 (stereo not drawn)
effect: -6.181

Compound: O=C(N[C@]12CC1CN(C(=O)c1ccco1)C2)c1ccco1 (stereo partly drawn)
effect: -9.33

Compound: O=C(CN1CCN(c2nccs2)CC1)Nc1cccnc1
effect: -10.47

Compound: COc1cc(-c2nccn2C(C)CCn2cccn2)cc2c1OCO2 (stereo not drawn)
effect: -5.476

Compound: COc1ccc(OC)c(C(C(=O)O)N2CCSCC2)c1 (stereo not drawn)
effect: -22.2

Compound: CCc1nc(CN2CCCC(NCc3cc(C)no3)C2)no1 (stereo not drawn)
effect: 3.839

For reference, 3 entries once more:

| Compound | effect |
|---|---|
| `CCNC(=O)CCC(=O)NCC1(O)CCC(C(C)(C)C)CC1` (stereo not drawn) | -6.181 |
| `COc1ccccc1CNc1c(O)c(=O)c1=O` | 25.09 |
| `COc1ccc(OC)c(C(C(=O)O)N2CCSCC2)c1` (stereo not drawn) | -22.2 |